Results reported in PubChem BioAssay AID493014 (National Center for Advancing Translational Sciences (NCATS), 2011).
The campaign covered roughly 340,000 compounds. About 170 (0.05%) were called active. Inconclusive results, whose numbers are uncertain, are shown with a selection of clear calls. Calls follow the shape of the dose curve; as a rule, active = well fitted inhibition curve with a large enough effect in the signal ratio, with a control signal flat (not every such curve was filed as active); inconclusive = small, poorly fitted or top-dose-only effect, or effect the other way, or a change in a side signal; inactive = flat fitted curve, though single readings scatter; the % refers to the signal ratio. Potencies of inconclusive entries are doubtful fits and often do not repeat.
Potency is read from the fitted curve at half-maximal effect.

Assay: qHTS Assay to Find Inhibitors of Chronic Active B-Cell Receptor Signaling;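 as to activity change, negative = inhibition: plate controls were basal doxycycline-induced cells for no effect and cells given 10 µM MG132 for full effect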
Conditions: ABC-DLBCL IkBa-CBG/CBR reporter, luminescence ratio (green luciferase fused to IkBa over red control in TMD8 lymphoma cells), 4 h; activity change, negative = inhibition: at 46.1 µM (top of the series) unless noted
Procedure, shortened: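 TMD8 ABC-DLBCL cells carrying doxycycline-inducible green luciferase fused to IkappaBalpha plus unfused red luciferase were exposed to compounds (up to 46 uM) for 4 hrs at 37C. Activity came from the overlap-corrected green/red luminescence ratio.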
With `O=C(NCc1cccnc1)/C(=C/c1ccc([N+](=O)[O-])cc1)NC(=O)c1ccccc1` the activity change, negative = inhibition was “inactive”. For `Cc1nnc(SCC(=O)Nc2nsc(-c3ccc(C(C)(C)C)cc3)n2)s1`, the activity change, negative = inhibition was inconclusive: 1.45%. For `C=CC(=C)CC(NC)c1ccccc1` (configuration not stated), the activity change, negative = inhibition was inconclusive: 3.88%. In the case of `O=C1CC(c2ccc(O)c(O)c2)Oc2cc(O)cc(O)c21` (configuration not stated), the activity change, negative = inhibition is reported as inconclusive: -4.51%. With `CCOc1ccc(C(CC(=O)O)NC(=O)C(Sc2ccccc2)c2ccccc2)cc1` (configuration not stated) the activity change, negative = inhibition was “inactive”. In the case of `O=C(CCc1ccccc1)Nc1ccc(S(=O)(=O)N2CCCC2)cc1`, the Potency is reported as inconclusive: 35.5 µM [falling, single point]. With `Cc1ccc(C)c(Cc2c(C)nc3c(C(=O)NCc4ccc5c(c4)OCO5)cnn3c2C)c1` the Potency was inconclusive: 29.1 µM [falling, single point]. In the case of `O=c1c2ccccc2oc2nc(-c3ccco3)n(-c3ccccc3)c(=O)c12`, the Potency is reported as inconclusive: 5.8 µM [rising, full curve, poor fit]. In the case of `Cc1ccc2nc(SCC(=O)Nc3cc([N+](=O)[O-])ccc3F)[nH]c2c1`, the activity change, negative = inhibition is reported as inconclusive: -0.093%. In the case of `COc1ccc(/C=N/NC(=O)c2ccc3c(c2)OCCO3)c(OC)c1`, the activity change, negative = inhibition is reported as inconclusive: -15.5%. For `CCCCCCCOc1ccc(OC(=O)c2ccncc2)cc1`, the activity change, negative = inhibition was inconclusive: 0.148%. With `CCN(CC)C(=O)CSc1nnc(-c2ccccn2)n1-c1ccccc1OC` the activity change, negative = inhibition was inconclusive: -0.475%. With `CCCCCCc1ccc(N2C[C@H](C)[C@@H](CC(=O)NCc3ccccc3)C2=O)cc1` the activity change, negative = inhibition was “inactive”. With `CCc1cc2c(C)cc(C)cc2nc1SCC(=O)Nc1cc(C)on1` the activity change, negative = inhibition was inconclusive: -0.478%. With `COCC(C)NC(=O)c1cc2c(ccc3ccccc32)oc1=O` (configuration not stated) the activity change, negative = inhibition was “inactive”. For `COC(=O)Cn1c(O)c(N=NC(=O)CNC(=O)c2ccc3c(c2)OCCO3)c2ccccc21`, the activity change, negative = inhibition was inconclusive: 4.69%. In the case of `O=C(O)c1cc([N+](=O)[O-])ccc1NCc1ccccc1`, the Potency is reported as inconclusive: 12.6 µM [falling, partial curve]. With `Cc1cc(C=O)c(C)n1-c1cccc(C(=O)O)c1` the activity change, negative = inhibition was “inactive”. For `COc1ccc(CCNC(=O)c2ccc(-c3cccc([N+](=O)[O-])c3)o2)cc1OC`, the activity change, negative = inhibition was inconclusive: -9.67%. For `Cc1ccc2c(c1)N(CC(=O)N1CCCCC1c1cccnc1)C(=O)CO2` (configuration not stated), the activity change, negative = inhibition was inconclusive: 9.15%. With `O=C(N/N=C/c1cccc2ccccc12)c1cc(C2CC2)[nH]n1` the Potency was inconclusive: 12.6 µM [falling, partial curve]. For `COc1ccc(C(CCNCc2ccc(N(C)C)cc2)C(C)C)cc1` (configuration not stated), the Potency was inconclusive: 14.1 µM [falling, partial curve, poor fit].
